Measured values as given in the supplement of paper PMC10849652.
This is one part of the list.

Protein sequences, listed by entry. Tags and fused reporters are not part of them. Lines headed by an entry give the natural chain unless they say otherwise; changes in a name come on top.
UniProt Q5TEJ8: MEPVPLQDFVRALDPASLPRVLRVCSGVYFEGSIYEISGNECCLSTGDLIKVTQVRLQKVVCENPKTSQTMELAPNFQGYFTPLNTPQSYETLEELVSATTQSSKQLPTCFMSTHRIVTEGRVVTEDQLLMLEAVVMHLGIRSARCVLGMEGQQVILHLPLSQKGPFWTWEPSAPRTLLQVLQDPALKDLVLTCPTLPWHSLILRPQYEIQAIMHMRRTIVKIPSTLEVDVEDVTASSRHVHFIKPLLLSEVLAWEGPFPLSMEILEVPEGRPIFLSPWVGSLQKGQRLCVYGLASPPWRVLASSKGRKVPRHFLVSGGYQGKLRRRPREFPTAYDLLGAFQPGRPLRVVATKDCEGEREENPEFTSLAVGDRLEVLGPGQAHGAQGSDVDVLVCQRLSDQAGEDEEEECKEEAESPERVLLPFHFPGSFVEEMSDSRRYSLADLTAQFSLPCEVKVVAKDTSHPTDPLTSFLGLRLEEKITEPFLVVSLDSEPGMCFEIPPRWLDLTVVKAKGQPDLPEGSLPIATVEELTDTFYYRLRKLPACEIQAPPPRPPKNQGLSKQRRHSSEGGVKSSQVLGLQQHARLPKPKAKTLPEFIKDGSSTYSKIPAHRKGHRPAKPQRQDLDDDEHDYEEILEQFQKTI
UniProt Q6ZT07: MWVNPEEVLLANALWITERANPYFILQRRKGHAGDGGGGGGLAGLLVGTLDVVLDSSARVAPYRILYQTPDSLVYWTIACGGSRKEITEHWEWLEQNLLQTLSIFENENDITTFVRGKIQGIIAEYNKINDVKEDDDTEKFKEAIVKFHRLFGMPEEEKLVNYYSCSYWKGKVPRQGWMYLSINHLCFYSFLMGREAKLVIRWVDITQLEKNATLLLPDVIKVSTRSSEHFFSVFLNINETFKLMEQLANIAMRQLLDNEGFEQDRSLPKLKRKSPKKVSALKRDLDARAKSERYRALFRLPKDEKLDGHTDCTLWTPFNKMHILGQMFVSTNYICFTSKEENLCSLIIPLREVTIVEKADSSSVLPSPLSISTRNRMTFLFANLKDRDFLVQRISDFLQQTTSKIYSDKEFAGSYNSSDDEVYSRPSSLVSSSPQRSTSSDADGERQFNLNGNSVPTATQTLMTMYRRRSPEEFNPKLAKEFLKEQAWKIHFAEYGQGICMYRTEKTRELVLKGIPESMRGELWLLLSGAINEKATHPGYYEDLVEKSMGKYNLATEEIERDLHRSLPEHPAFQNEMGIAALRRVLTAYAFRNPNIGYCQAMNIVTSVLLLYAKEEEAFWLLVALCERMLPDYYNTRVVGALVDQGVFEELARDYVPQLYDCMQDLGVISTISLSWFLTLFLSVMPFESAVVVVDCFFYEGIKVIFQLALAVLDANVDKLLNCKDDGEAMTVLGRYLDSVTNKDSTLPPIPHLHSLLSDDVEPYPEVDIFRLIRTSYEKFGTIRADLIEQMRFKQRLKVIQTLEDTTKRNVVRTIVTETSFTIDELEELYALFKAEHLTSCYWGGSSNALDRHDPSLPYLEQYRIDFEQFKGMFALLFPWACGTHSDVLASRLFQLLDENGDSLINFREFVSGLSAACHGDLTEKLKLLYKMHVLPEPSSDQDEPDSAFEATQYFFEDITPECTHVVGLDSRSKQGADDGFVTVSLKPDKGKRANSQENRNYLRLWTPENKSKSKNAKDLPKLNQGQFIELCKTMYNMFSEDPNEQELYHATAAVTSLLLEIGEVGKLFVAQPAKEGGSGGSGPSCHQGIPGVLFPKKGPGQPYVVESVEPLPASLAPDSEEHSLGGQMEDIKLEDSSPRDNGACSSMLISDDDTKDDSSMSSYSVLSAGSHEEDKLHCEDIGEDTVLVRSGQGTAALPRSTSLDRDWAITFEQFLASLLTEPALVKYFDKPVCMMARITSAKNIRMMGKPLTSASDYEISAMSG
UniProt Q7L2K0: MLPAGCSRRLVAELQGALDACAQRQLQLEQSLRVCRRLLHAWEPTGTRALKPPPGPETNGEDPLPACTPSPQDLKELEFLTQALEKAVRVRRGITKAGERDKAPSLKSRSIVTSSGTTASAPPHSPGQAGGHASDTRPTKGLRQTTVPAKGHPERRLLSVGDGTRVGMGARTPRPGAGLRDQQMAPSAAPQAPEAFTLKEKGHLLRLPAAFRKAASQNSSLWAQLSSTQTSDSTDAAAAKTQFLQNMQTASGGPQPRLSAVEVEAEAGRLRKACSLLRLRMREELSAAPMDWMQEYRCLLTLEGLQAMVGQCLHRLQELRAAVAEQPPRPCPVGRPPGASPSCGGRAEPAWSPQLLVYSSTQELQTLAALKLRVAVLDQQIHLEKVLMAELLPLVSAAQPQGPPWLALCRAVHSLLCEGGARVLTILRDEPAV
UniProt Q9P2M4: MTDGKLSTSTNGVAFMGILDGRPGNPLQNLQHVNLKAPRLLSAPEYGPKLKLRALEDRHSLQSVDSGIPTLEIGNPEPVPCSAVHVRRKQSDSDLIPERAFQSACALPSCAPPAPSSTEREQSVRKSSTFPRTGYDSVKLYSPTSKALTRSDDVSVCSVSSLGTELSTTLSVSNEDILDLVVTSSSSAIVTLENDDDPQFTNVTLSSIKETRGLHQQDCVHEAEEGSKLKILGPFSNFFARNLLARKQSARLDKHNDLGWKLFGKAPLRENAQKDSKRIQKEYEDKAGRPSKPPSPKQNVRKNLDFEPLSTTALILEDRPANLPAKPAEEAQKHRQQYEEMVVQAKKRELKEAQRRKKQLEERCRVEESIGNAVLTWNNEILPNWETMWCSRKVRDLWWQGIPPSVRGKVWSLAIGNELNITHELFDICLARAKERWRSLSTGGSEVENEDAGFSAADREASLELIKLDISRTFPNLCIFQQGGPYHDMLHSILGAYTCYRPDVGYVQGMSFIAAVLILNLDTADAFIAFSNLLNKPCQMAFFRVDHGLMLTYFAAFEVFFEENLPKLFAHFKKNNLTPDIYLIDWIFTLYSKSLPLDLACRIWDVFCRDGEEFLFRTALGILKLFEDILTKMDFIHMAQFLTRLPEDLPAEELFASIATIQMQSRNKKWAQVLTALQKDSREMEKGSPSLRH
UniProt Q9UHQ7: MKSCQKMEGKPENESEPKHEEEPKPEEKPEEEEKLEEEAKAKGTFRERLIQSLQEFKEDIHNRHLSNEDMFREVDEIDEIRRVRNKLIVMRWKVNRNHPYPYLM
UniProt P15923: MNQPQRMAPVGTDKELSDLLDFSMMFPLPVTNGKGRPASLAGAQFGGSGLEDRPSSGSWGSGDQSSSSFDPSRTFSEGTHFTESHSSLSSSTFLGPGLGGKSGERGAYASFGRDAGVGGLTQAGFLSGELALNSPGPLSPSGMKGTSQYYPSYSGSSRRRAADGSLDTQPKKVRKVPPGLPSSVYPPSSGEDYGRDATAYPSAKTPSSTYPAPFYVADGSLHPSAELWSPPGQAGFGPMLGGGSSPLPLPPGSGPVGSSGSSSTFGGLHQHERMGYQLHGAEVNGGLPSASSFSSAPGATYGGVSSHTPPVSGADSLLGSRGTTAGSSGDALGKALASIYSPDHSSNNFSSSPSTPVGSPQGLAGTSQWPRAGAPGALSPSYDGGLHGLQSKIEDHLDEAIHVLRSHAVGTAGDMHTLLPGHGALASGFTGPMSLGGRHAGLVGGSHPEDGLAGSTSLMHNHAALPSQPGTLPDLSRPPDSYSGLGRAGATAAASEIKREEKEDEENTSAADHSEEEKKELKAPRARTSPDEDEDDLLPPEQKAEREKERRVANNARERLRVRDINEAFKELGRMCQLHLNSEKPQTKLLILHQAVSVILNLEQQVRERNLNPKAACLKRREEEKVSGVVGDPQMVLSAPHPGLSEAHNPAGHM
UniProt Q04726: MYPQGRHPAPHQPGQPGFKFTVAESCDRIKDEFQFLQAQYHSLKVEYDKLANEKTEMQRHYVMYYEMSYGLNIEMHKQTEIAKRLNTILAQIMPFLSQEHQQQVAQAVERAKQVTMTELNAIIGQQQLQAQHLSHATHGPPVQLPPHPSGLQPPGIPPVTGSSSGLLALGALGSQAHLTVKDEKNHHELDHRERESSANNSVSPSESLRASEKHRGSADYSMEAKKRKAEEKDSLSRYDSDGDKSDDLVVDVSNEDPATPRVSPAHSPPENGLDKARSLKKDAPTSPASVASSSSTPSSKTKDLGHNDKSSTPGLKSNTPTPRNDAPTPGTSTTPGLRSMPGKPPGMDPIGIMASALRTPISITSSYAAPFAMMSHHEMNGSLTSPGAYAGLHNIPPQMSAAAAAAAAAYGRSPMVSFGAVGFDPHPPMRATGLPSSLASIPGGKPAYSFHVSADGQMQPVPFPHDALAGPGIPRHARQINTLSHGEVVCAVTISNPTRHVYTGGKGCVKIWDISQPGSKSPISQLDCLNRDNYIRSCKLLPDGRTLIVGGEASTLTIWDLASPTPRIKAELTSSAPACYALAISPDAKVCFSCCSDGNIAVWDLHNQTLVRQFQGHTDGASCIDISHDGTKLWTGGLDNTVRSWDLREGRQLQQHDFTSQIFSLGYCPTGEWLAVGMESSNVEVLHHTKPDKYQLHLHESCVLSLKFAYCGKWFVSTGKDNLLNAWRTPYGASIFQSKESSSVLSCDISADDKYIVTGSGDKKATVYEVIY
UniProt Q9UGU0: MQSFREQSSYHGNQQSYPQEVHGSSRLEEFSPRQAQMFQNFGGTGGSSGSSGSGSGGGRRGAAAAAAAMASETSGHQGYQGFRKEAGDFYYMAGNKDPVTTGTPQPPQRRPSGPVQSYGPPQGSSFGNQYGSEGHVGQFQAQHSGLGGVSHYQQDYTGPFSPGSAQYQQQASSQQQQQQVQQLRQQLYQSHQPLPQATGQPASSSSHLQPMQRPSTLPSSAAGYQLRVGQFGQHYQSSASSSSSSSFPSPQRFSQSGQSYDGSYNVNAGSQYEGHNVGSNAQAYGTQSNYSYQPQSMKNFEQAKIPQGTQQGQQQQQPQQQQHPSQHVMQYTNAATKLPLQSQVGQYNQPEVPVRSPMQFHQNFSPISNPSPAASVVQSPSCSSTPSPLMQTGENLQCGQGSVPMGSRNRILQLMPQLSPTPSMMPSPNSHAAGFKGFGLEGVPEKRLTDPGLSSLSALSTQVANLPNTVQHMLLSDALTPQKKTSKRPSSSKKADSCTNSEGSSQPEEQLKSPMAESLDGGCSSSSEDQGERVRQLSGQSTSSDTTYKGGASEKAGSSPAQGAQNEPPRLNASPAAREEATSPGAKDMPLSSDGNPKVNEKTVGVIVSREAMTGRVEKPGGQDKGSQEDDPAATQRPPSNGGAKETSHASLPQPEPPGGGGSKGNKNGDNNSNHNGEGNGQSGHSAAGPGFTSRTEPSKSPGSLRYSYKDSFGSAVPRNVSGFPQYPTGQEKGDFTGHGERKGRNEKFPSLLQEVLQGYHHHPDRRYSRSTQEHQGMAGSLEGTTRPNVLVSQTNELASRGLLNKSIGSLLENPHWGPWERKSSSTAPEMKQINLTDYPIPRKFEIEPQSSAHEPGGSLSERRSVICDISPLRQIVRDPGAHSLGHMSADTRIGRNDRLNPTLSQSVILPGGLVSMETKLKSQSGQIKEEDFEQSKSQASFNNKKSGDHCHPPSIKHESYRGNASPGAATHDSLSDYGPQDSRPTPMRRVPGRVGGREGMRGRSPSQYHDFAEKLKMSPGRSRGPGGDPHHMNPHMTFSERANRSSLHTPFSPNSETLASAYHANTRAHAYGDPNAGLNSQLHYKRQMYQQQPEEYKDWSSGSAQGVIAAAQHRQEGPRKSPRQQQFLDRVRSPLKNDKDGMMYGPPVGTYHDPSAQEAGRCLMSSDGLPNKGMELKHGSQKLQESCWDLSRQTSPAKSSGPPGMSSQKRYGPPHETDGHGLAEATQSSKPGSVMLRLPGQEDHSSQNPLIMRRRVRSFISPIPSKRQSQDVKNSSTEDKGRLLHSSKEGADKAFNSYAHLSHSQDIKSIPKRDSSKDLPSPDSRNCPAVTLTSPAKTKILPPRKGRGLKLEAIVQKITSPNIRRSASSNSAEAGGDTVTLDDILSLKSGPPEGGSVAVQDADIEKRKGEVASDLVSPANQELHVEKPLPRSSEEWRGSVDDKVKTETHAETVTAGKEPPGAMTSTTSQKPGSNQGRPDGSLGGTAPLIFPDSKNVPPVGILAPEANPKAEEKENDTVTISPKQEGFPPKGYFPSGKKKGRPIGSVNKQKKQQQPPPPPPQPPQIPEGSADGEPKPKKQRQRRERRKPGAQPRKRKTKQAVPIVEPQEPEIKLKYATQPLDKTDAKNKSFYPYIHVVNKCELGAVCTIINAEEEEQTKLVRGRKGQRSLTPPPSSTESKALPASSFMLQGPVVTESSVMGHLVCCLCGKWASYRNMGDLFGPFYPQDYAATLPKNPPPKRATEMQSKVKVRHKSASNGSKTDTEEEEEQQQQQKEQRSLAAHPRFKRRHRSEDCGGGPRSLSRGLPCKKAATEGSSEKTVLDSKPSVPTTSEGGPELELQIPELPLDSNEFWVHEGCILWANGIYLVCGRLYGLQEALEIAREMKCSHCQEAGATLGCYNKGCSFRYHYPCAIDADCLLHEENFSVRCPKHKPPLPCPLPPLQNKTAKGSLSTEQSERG

compound: CN1CCN(CCOc2cc(OC3CCOCC3)c3c(Nc4c(Cl)ccc5c4OCO5)ncnc3c2)CC1 [saracatinib]; test: log2 fold change, soluble protein after heating vs DMSO (PISA); higher = thermal stabilisation; K562 cells, 10 uM, 30 min; active = over 0.2 and 3.5 SD of the protein, either way, in both replicates (recomputed)
How it was run: (§1)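 Values are thermal stability changes relative to control samples and are taken from duplicates. They are stated as log2 fold changes. Before quantification by TMTpro 16plex LC-MS/MS with equalised channel sums, K562 cells at 2×10^6 cells/mL were treated with 10 μM compound for 30 min, heated in aliquots for 3 min across 48°C-58°C, pooled, extracted in PBS with 0.5% NP-40 at 4°C, and centrifuged at 21,000xg for 90 min to give the soluble supernatant.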

Target | log2 fold change
TEX30 (UniProt Q5JUR7) | inactive: -0.065
TENM4 (UniProt Q6N022) | inactive: -0.196
THAP9 (UniProt Q9H5L6) | inactive: 0.039
TBP (UniProt P20226) | inactive: 0.316
THEMIS2 (UniProt Q5TEJ8) | inactive: -0.023
TBC1D9 (UniProt Q6ZT07) | inactive: -0.041
TC2N (UniProt Q8N9U0) | inactive: -0.215
TCP11L1 (UniProt Q9NUJ3) | inactive: 0
TBCK (UniProt Q8TEA7) | inactive: 0.073
TEDC2 (UniProt Q7L2K0) | inactive: 0.063
TDRD7 (UniProt Q8NHU6) | inactive: -0.012
TCEAL4 isoform 2 (UniProt Q96EI5) | inactive: -0.028

compound: CN1CCN(c2nc(C3=C(c4c[nH]c5ccccc45)C(=O)NC3=O)c3ccccc3n2)CC1 [sotrastaurin]; test: as above
How it was run: as §1

Target | log2 fold change
TEX10 (UniProt Q9NXF1) | inactive: -0.16
TCTN3 (UniProt Q6NUS6) | inactive: 0.081
TBC1D7 (UniProt Q9P0N9) | inactive: -0.303
TBC1D14 (UniProt Q9P2M4) | inactive: 0.08
TIFA (UniProt Q96CG3) | inactive: 0.046
TCEAL9 (UniProt Q9UHQ7) | inactive: -0.302
TBC1D20 isoform 3 (UniProt Q96BZ9) | inactive: 0.053
TCOF1 isoform 3 (UniProt Q13428) | inactive: 0.326
TFDP1 (UniProt Q14186) | inactive: -0.157
TFE3 (UniProt P19532) | inactive: -0.416
TCEAL1 isoform 2 (UniProt Q15170) | inactive: -0.008
TFDP2 (UniProt Q14188) | inactive: 0.253
TCOF1 isoform 6 (UniProt Q13428) | inactive: -0.094

compound: CN1CC[C@H](c2c(O)cc(O)c3c(=O)cc(-c4ccccc4Cl)oc23)[C@H](O)C1 [alvocidib]; test: as above
How it was run: as §1

Target | log2 fold change
TENM4 (UniProt Q6N022) | inactive: 0.051
TCF3 isoform 2 (UniProt P15923) | inactive: 0.03
TLE3 (UniProt Q04726) | inactive: 0.057
TFIP11 (UniProt Q9UBB9) | inactive: -0.107
TBC1D25 (UniProt Q3MII6) | inactive: -0.098
TIFA (UniProt Q96CG3) | inactive: -0.054
TCF20 (UniProt Q9UGU0) | inactive: 0.145
TFAP4 (UniProt Q01664) | inactive: 0.087
THAP12 (UniProt O43422) | inactive: -0.163
TCEAL1 isoform 2 (UniProt Q15170) | inactive: 0.03
TCF25 (UniProt Q9BQ70) | inactive: 0.035
TFDP2 (UniProt Q14188) | inactive: -0.053
TDRD7 (UniProt Q8NHU6) | inactive: -0.028
TCAF2 (UniProt A6NFQ2) | inactive: -0.047
